Source: publication PMC11468294 (Advanced Healthcare Materials, 2023)

Assay: general procedure: Fmoc solid-phase peptide synthesis; Rink Amide
Conditions: whole synthesis; for final HPLC purity / final LC-MS purity: LC-MS or analytical HPLC

| Substance | crude yield [%] | final HPLC purity [%] | final LC-MS purity [%] |
| --- | --- | --- | --- |
| PEPTIDE1{[Palm].V.V.V.A.A.A.E.E.E.[am]}$$$$V2.0 | 46 | >90 |  |
| PEPTIDE1{V.V.V.A.A.A.K.K.K.[am]}$$$$V2.0 |  | >95 |  |
| PEPTIDE1{F.Q.F.K.F.K.C.[am]}$$$$V2.0 |  |  | >95 |
| PEPTIDE1{V.V.V.A.A.A.E.E.E.[am]}$$$$V2.0 |  | >70 |  |
| PEPTIDE1{[Palm].F.Q.F.K.F.K.C.[am]}$$$$V2.0 | 25 |  | >90 |

HELM strings list residues between dots; [ac] is acetyl, [am] amide, other brackets name non-standard units.
